Measurements: patent EP2844225B1, “AVERMECTIN POUR-ON FORMULATION WITH REDUCED WITHDRAWAL TIME” (Norbrook Laboratories Limited, priority 2012, dated 2013)
Where “and” joins values, the source holds several entries; their conditions need not be identical. Equal entries are not always repeated. Further values from the same series stand in other lists.

Experiment: Plasma levels of eprinomectin in cattle after topical pour-on administration (HPLC with fluorescence detection)
Conditions: 0.5 mg/kg bodyweight, individual animals
Description: Twenty beef cattle of mixed gender and aged approximately between 10-20 months at the time of selection were used to determine the levels of eprinomectin in plasma following topical administration of the composition set forth in Table 1 below at a dose rate of 0.5mg/kg of eprinomectin.
The composition was administered along the midline of the back in a narrow strip between the withers and the tailhead using 60 ml syringes graduated to 1 ml. […] Blood samples were collected from each animal by venipuncture from the jugular vein using suitably labelled 9ml heparinised vacutainers. Following collection, samples were placed on ice protected from light under black cover prior to centrifugation. After centrifugation at 4500 revolutions per minute (RPM) for 5 minutes, the plasma was subsampled into 3 amber cryovials (-1ml plasma/cryovial). Plasma samples were stored at <-20°C until assayed. All samples were assayed for the determination of eprinomectin content, measured as eprinomectin B 1 a (hereafter referred to as eprinomectin) by HPLC.

For `CC[C@H](C)[C@H]1O[C@]2(C=C[C@@H]1C)C[C@@H]1C[C@@H](C/C=C(\C)[C@@H](O[C@H]3C[C@H](OC)[C@@H](O[C@H]4C[C@H](OC)[C@H](NC(C)=O)[C@H](C)O4)[C@H](C)O3)[C@@H](C)/C=C/C=C3\CO[C@@H]4[C@H](O)C(C)=C[C@@H](C(=O)O1)[C@]34O)O2` [eprinomectin], the “Plasma concentration of eprinomectin” value (time point 24 hrs, 1440 min) was 9.06 ng/mL and 13.3 ng/mL and 7.29 ng/mL and 15.6 ng/mL and 13.6 ng/mL and 12.7 ng/mL and 20.1 ng/mL and 19.4 ng/mL and 18.7 ng/mL and 9.63 ng/mL and 16.5 ng/mL and 24.6 ng/mL and 14.1 ng/mL, the “Plasma concentration of eprinomectin” value (time point 48 hrs, 2880 min) was 11.1 ng/mL and 43.0 ng/mL and 28.9 ng/mL and 26.6 ng/mL and 17.8 ng/mL and 39.4 ng/mL and 30.0 ng/mL and 32.0 ng/mL and 23.3 ng/mL and 39.8 ng/mL and 53.8 ng/mL and 37.6 ng/mL and the “Plasma concentration of eprinomectin” value (time point 72 hrs, 4320 min) was 22.8 ng/ml (2×) and 47.4 ng/ml and 35.4 ng/ml and 37.0 ng/ml and 23.8 ng/ml and 54.6 ng/ml and 41.1 ng/ml and 35.9 ng/ml and 32.1 ng/ml and 51.1 ng/ml and 73.9 ng/ml and 52.8 ng/ml. For the same molecule, the “Plasma concentration of eprinomectin” value (time point 96 hrs, 5760 min) was 15.5 ng/mL and 25.7 ng/mL and 53.3 ng/mL and 23.3 ng/mL and 40.7 ng/mL and 37.2 ng/mL and 24.4 ng/mL and 63.5 ng/mL and 60.4 ng/mL and 32.1 ng/mL and 34.9 ng/mL and 53.2 ng/mL and 69.2 ng/mL and 72.2 ng/mL, the “Plasma concentration of eprinomectin” value (time point 120 hrs, 7200 min) was 18.5 ng/ml and 17.9 ng/ml and 56.5 ng/ml and 24.5 ng/ml (2×) and 46.8 ng/ml and 38.6 ng/ml and 53.4 ng/ml (2×) and 52.1 ng/ml and 25.1 ng/ml and 27.9 ng/ml and 64.2 ng/ml and 63.0 ng/ml and the “Plasma concentration of eprinomectin” value (time point 144 hrs, 8640 min) was 20.8 ng/mL and 22.3 ng/mL and 53.7 ng/mL and 21.2 ng/mL and 37.6 ng/mL and 30.3 ng/mL and 22.6 ng/mL and 47.1 ng/mL and 46.5 ng/mL and 15.4 ng/mL and 26.0 ng/mL and 49.9 ng/mL and 50.0 ng/mL and 34.5 ng/mL. For the same molecule, the “Plasma concentration of eprinomectin” value (time point 192 hrs, 11520 min) was 18.8 ng/mL and 15.7 ng/mL and 43.6 ng/mL and 14.1 ng/mL and 20.8 ng/mL and 19.3 ng/mL and 18.9 ng/mL and 28.0 ng/mL and 25.5 ng/mL and 8.63 ng/mL and 15.1 ng/mL and 29.6 ng/mL and 28.2 ng/mL and 17.4 ng/mL, the “Plasma concentration of eprinomectin” value (time point 216 hrs, 12960 min) was 17.4 ng/mL and 33.1 ng/mL and 14.9 ng/mL and 23.5 ng/mL and 19.8 ng/mL and 18.2 ng/mL and 22.2 ng/mL and 18.0 ng/mL and 6.34 ng/mL and 13.3 ng/mL and 21.0 ng/mL and 21.6 ng/mL and 13.1 ng/mL and the “Plasma concentration of eprinomectin” value (time point 240 hrs, 14400 min) was 16.6 ng/ml and 27.8 ng/ml and 8.37 ng/ml and 18.5 ng/ml and 13.7 ng/ml and 15.2 ng/ml (3×) and 11.5 ng/ml and 4.09 ng/ml and 9.22 ng/ml and 17.4 ng/ml. For the same molecule, the “Plasma concentration of eprinomectin” value (time point 312 hrs, 18720 min) was 5.95 ng/mL and 10.9 ng/mL and 4.10 ng/mL and 7.60 ng/mL and 5.34 ng/mL and 6.51 ng/mL and 7.51 ng/mL and 4.92 ng/mL and 2.08 ng/mL and 4.63 ng/mL and 6.64 ng/mL and 7.96 ng/mL and 4.02 ng/mL, the “Plasma concentration of eprinomectin” value (time point 336 hrs, 20160 min) was 5.69 ng/ml (2×) and 9.42 ng/ml and 3.05 ng/ml and 3.96 ng/ml and 6.70 ng/ml and 6.80 ng/ml and 3.62 ng/ml and 1.53 ng/ml and 3.09 ng/ml and 5.35 ng/ml and 5.81 ng/ml and 3.02 ng/ml and the “Plasma concentration of eprinomectin” value (time point 360 hrs, 21600 min) was 3.91 ng/mL and 6.58 ng/mL and 3.56 ng/mL and 4.88 ng/mL and 2.81 ng/mL and 4.44 ng/mL and 4.43 ng/mL and 2.76 ng/mL and 1.30 ng/mL and 2.34 ng/mL and 3.87 ng/mL and 4.57 ng/mL and 2.17 ng/mL. The “Plasma concentration of eprinomectin” value (time point 408 hrs, 24480 min) was 2.59 ng/mL and 5.28 ng/mL and 2.95 ng/mL and 3.51 ng/mL and 2.20 ng/mL and 3.58 ng/mL and 2.54 ng/mL and 2.03 ng/mL and <1.00 ng/mL and 1.62 ng/mL and 2.23 ng/mL and 2.44 ng/mL and 2.41 ng/mL.
